Measurements reported in PubChem BioAssay AID504786 (Drosophila RNAi Screening Center, 2011).
Assay: 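Fly genes required for HIF-dependent transcription when hypoxia is mimicked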 (primary screen). Cells: Drosophila S2 cells with a stable HIF luciferase reporter. Reagent: long dsRNA against Drosophila genes, about 0.2 µg dsRNA per well of a 384-well plate. Timing: three days of knock-down, then 20 h of DFO before reading. Treatment: desferrioxamine (DFO) at 100 µM, an iron chelator that mimics hypoxia, for 20 h. Detection: 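Firefly luciferase driven by the mouse ldh-a hypoxia-response element, measured after 20 h of 100 µM DFO; z-scores per plate, higher means more signal lost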. Reading the numbers: z-score: higher = stronger loss of HIF reporter signal.
The deposit covers about 21,000 reagents; below is an unselected part of those that have a named target and a result. 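Primary screen; positive scores mean lost reporter signal, so the sign may be inverted from the usual convention.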 A plus sign joins genes that one reagent is predicted to hit.

With ATP6AP2 (ATPase H+ transporting accessory protein 2) [DRSC16420], what was measured?
z-score, replicate 1: -0.1; z-score, replicate 2: -0.6

For l(2)41Ab (lethal (2) 41Ab) [DRSC21007], how do the results read?
z-score, replicate 1: -0.5; z-score, replicate 2: 0

With Fmo-2 (Flavin-containing monooxygenase 2) [DRSC04983], how do the results read?
z-score, replicate 1: -0.2; z-score, replicate 2: -0.1

For betaggt-I (beta subunit of type I geranylgeranyl transferase) [DRSC03494], what does the deposit list?
z-score, replicate 1: -0.2; z-score, replicate 2: 0.1

Which result is listed for CG12448 [DRSC01967]?
z-score, replicate 1: -0.4; z-score, replicate 2: 0

What did the screen give for cutlet [DRSC00284]?
z-score, replicate 1: -0.3; z-score, replicate 2: 0

How did the screen score CG16985 [DRSC08501]?
z-score, replicate 1: -0.4; z-score, replicate 2: -0.8

Which result is listed for Toll-7 [DRSC07563]?
z-score, replicate 1: -0.4; z-score, replicate 2: -0.3

How did the screen score GluRIIA (Glutamate receptor IIA) [DRSC03334]?
z-score, replicate 1: -0.1; z-score, replicate 2: -0.7

What did the screen give for CG6059 [DRSC15958]?
z-score, replicate 1: -0.4; z-score, replicate 2: -0.5

What did the screen give for grn (grain) [DRSC12666]?
z-score, replicate 1: 3.8; z-score, replicate 2: 0.1

What is on record for grn (grain) [DRSC16961]?
z-score, replicate 1: -0.2; z-score, replicate 2: -0.4

With CG7650 [DRSC10898], what does the deposit list?
z-score, replicate 1: -0.2; z-score, replicate 2: 0.1

For CG43894 [DRSC10123], what was measured?
z-score, replicate 1: 0.5; z-score, replicate 2: 0.8

What is on record for CG10147 [DRSC09706]?
z-score, replicate 1: -0.2; z-score, replicate 2: -0.2

What did the screen give for Septin2 (Septin 2) [DRSC16855]?
z-score, replicate 1: -0.3; z-score, replicate 2: -0.6

For CG10345 [DRSC14138], what was measured?
z-score, replicate 1: -0.3; z-score, replicate 2: -0.4

For CG13086 [DRSC02190], what was measured?
z-score, replicate 1: -0.3; z-score, replicate 2: -0.5

For CG7409 [DRSC10842], what was measured?
z-score, replicate 1: -0.2; z-score, replicate 2: 0

What did the screen give for CG15170 [DRSC02471]?
z-score, replicate 1: -0.3; z-score, replicate 2: -0.5

For CG13362 [DRSC17897], how do the results read?
z-score, replicate 1: -0.2; z-score, replicate 2: -0.6

What is on record for CG7492 [DRSC10855]?
z-score, replicate 1: -0.3; z-score, replicate 2: -0.4

What is on record for Octbeta3R (Octopamine beta3 receptor) [DRSC15351]?
z-score, replicate 1: -0.1; z-score, replicate 2: 0.4

Which result is listed for Octbeta3R (Octopamine beta3 receptor) [DRSC16191]?
z-score, replicate 1: -0.3; z-score, replicate 2: -0.3

For CCT2 (Chaperonin containing TCP1 subunit 2) [DRSC18415], how do the results read?
z-score, replicate 1: 0.3; z-score, replicate 2: 2.4

For CG5913 [DRSC15916], what was measured?
z-score, replicate 1: 0; z-score, replicate 2: -0.4

For CG13084 [DRSC02188], what was measured?
z-score, replicate 1: -0.2; z-score, replicate 2: -0.1

With CG4686 [DRSC15622], what was measured?
z-score, replicate 1: -1.1; z-score, replicate 2: -0.8

With HIP + HIP-R [DRSC18245], what was measured?
z-score, replicate 1: -0.2; z-score, replicate 2: -0.8

For CG42613 [DRSC13332], what does the deposit list?
z-score, replicate 1: -0.7; z-score, replicate 2: -0.5

With CG42613 [DRSC14769], what was measured?
z-score, replicate 1: 0.4; z-score, replicate 2: 1.2

With CG42613 [DRSC15802], what was measured?
z-score, replicate 1: -0.2; z-score, replicate 2: -0.5

What did the screen give for Rpt4R (Regulatory particle triple-A ATPase 4-related) [DRSC10791]?
z-score, replicate 1: -0.2; z-score, replicate 2: 0.1

How did the screen score BomBc1 (Bomanin Bicipital 1) [DRSC06501]?
z-score, replicate 1: -0.4; z-score, replicate 2: -0.5

What did the screen give for mRpS11 (mitochondrial ribosomal protein S11) [DRSC15732]?
z-score, replicate 1: 0.2; z-score, replicate 2: 0

With CG11723 [DRSC00324], how do the results read?
z-score, replicate 1: -0.3; z-score, replicate 2: 0

What is on record for GstE7 (Glutathione S transferase E7) [DRSC06677]?
z-score, replicate 1: -0.2; z-score, replicate 2: 0.2

With RecQ5 (RecQ5 helicase) [DRSC11266], what was measured?
z-score, replicate 1: -0.3; z-score, replicate 2: -0.3

What did the screen give for CG14990 [DRSC08449]?
z-score, replicate 1: -0.3; z-score, replicate 2: -0.5

What is on record for Nct (Nicastrin) [DRSC16172]?
z-score, replicate 1: -0.3; z-score, replicate 2: -0.5
